Laboratory results reported in paper doi:10.1101/2025.05.16.654402.
Positions count from the first letter of the chain named. In names and notes the source's numbering stands. These are yes or no findings as the source states them, for the method shown. Binding seen in cells or lysates may run through a third protein. Some entries that bind do so weakly or less than the wild type.

B1: Midkine-CHA (protein, UniProt P12025 23-140)
chain: KKKEKVKKGSECSEWTWGPCTPSSKDCGMGFREGTCGAQTQRVHCKVPCNWKKEFGADCKYKFESWGACDGSTGTKARQGTLKKARYNAQCQETIRVTKPCTSKTKSKTKAKKGKGKD
B2: GPC4-CHA (protein, UniProt P51655 19-529)
chain: SLLAAELKSKSCSEVRRLYVSKGFNKNDAPLYEINGDHLKICPQDYTCCSQEMEEKYSLQSKDDFKTVVSEQCNHLQAIFASRYKKFDEFFKELLENAEKSLNDMFVKTYGHLYMQNSELFKDLFVELKRYYVAGNVNLEEMLNDFWARLLERMFRLVNSQYHFTDEYLECVSKYTEQLKPFGDVPRKLKLQVTRAFVAARTFAQGLAVARDVVSKVSVVNPTAQCTHALLKMIYCSHCRGLVTVKPCYNYCSNIMRGCLANQGDLDFEWNNFIDAMLMVAERLEGPFNIESVMDPIDVKISDAIMNMQDNSVQVSQKVFQGCGPPKPLPAGRISRSISESAFSARFRPYHPEQRPTTAAGTSLDRLVTDVKEKLKQAKKFWSSLPSTVCNDERMAAGNENEDDCWNGKGKSRYLFAVTGNGLANQGNNPEVQVDTSKPDILILRQIMALRVMTSKMKNAYNGNDVDFFDISDESSGEGSGSGCEYQQCPSEFEYNATDHSGKSANEKADS
B3: GPC1-CHA (protein, UniProt Q9QZF2 24-529)
chain: DPASKSRSCSEVRQIYGAKGFSLSDVPQAEISGEHLRICPQGYTCCTSEMEENLANHSRMELESALHDSSRALQATLATQLHGIDDHFQRLLNDSERTLQEAFPGAFGDLYTQNTRAFRDLYAELRLYYRGANLHLEETLAEFWARLLERLFKQLHPQLLPDDYLDCLGKQAEALRPFGDAPRELRLRATRAFVAARSFVQGLGVASDVVRKVAQVPLAPECSRAIMKLVYCAHCRGVPGARPCPDYCRNVLKGCLANQADLDAEWRNLLDSMVLITDKFWGPSGAESVIGGVHVWLAEAINALQDNKDTLTAKVIQACGNPKVNPHGSGPEEKRRRGKLALQEKPSTGTLEKLVSEAKAQLRDIQDFWISLPGTLCSEKMAMSPASDDRCWNGISKGRYLPEVMGDGLANQINNPEVEVDITKPDMTIRQQIMQLKIMTNRLRGAYGGNDVDFQDASDDGSGSGSGGGCPDDTCGRRVSKKSSSSRTPLTHALPGLSEQEGQKTS
B4: GPC2-CHA (protein, UniProt Q8BKV1 22-556)
chain: HGSEAKVVRSCAETRQVLGARGYSLNLIPPSLISGEHLQVCPQEYTCCSSETEQKLIRDAEVTFRGLVEDSGSFLIHTLAARHRKFNEFFREMLSISQHSLAQLFSHSYGRLYSQHAVIFNSLFSGLRDYYEKSGEGLDDTLADFWAQLLERAFPLLHPQYSFPPDFLLCLTRLTSTADGSLQPFGDSPRRLRLQISRALVAARALVQGLETGRNVVSEALKVPVLEGCRQALMRLIGCPLCRGVPSLMPCRGFCLNVAHGCLSSRGLEPEWGGYLDGLLLLAEKLQGPFSFELAAESIGVKISEGLMHLQENSVKVSAKVFQECGTPHPVQSRSRRAPAPREEASRSWRASAEEERPTTAAGTNLHRLVWELRERLSRVRGFWAGLPVTVCGDSRMAADLSQETAPCWTGVGRGRYMSPVVVGSLNEQLHNPELDTSSPDVPTRRRRLHLRAATARMKAAALGQDLDMHDADEDASGSGGGQQYADDWKAGAVPVVPPARPPRPPRPPRRDGLGVRGGSGSARYNQGRSRNLGS
B5: GPC6-CHA (protein, UniProt Q9R087 24-530)
chain: DVKARSCSEVRQAYGAKGFSLADIPYQEIAGEHLRICPQEYTCCTTEMEDKLSQQSKLEFENLVEETSHFVRTTFVSRHKKFDEFFRELLENAEKSLNDMFVRTYGMLYMQNSEVFQDLFTELKRYYTGGNVNLEEMLNDFWARLLERMFQLINPQYHFSEDYLECVSKYTDQLKPFGDVPRKLKIQVTRAFIAARTFVQGLTVGREVANRVSKVSPTPGCIRALMKMLYCPYCRGLPTVRPCNNYCLNVMKGCLANQADLDTEWNLFIDAMLLVAERLEGPFNIESVMDPIDVKISEAIMNMQENSMQVSAKVFQGCGQPKPAPALRSARSAPENFNTRFRPYNPEERPTTAAGTSLDRLVTDIKEKLKLSKKVWSALPYTICKDERVTAGTSNEEECWNGHSKARYLPEIMNDGLTNQINNPEVEVDITRPDTFIRQQIMALRVMTNKLKNAYNGNDVNFQDTSDESSGSGSGSGCMDDVCPTEFEFVTTEAPAVDPDRREEESS
B6: GPC4 core-CHA protein (aa. 1-485) (domain or fragment, UniProt P51655 19-485)
chain: SLLAAELKSKSCSEVRRLYVSKGFNKNDAPLYEINGDHLKICPQDYTCCSQEMEEKYSLQSKDDFKTVVSEQCNHLQAIFASRYKKFDEFFKELLENAEKSLNDMFVKTYGHLYMQNSELFKDLFVELKRYYVAGNVNLEEMLNDFWARLLERMFRLVNSQYHFTDEYLECVSKYTEQLKPFGDVPRKLKLQVTRAFVAARTFAQGLAVARDVVSKVSVVNPTAQCTHALLKMIYCSHCRGLVTVKPCYNYCSNIMRGCLANQGDLDFEWNNFIDAMLMVAERLEGPFNIESVMDPIDVKISDAIMNMQDNSVQVSQKVFQGCGPPKPLPAGRISRSISESAFSARFRPYHPEQRPTTAAGTSLDRLVTDVKEKLKQAKKFWSSLPSTVCNDERMAAGNENEDDCWNGKGKSRYLFAVTGNGLANQGNNPEVQVDTSKPDILILRQIMALRVMTSKMKNAYNGNDVD
B7: GPC4 δHS-CHA (S494A, S498A, S500A) mutant protein (protein, UniProt P51655 19-529)
chain: B2 chain with S476A, S480A, S482A

Biological target: T1, CCN1-HuFc (mouse CCN1 without stop codon in pCAG-HuFc) (mouse) (UniProt P18406)
T1 sequence: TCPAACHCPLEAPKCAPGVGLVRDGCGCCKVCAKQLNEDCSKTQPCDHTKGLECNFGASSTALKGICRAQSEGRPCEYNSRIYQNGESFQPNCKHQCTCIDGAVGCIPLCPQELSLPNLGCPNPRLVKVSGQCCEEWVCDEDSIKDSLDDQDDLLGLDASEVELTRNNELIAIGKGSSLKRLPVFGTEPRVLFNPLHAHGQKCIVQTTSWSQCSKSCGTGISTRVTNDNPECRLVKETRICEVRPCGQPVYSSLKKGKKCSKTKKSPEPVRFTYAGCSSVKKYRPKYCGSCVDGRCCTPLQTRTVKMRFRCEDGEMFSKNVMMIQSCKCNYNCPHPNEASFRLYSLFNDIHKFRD
Test: co-IP

Row | Binder | binding
1 | B1 | binds
2 | B2 | binds
3 | B3 | binds weakly
4 | B4 | binds weakly
5 | B5 | binds weakly
6 | B6 | binds
7 | B7 | binds
